Assay results as given in US8759300.

What follows are binders tested against transforming growth factor-β1 (TGF-β1) (human) (assay: peptide binding to the GF).

Row | binding | Binder
1 | binds | NGQTPIQRTIKPDVRSYTITGLQPGT [peptide 3 …]
2 | binds | QLISIQQYGHQEVTRFDFTTTSTST [peptide 2 (FN680-704) …]

The remaining lines, values behind:

Row | Binder | binding
3 | QPSVGQQMIFEEHGFRRTTPPTTAT [peptide 4 (FN2043-2067) …] | binds
4 | QPSHISKYILRWRPKNSVGRWKEAT [peptide 1 (FN634-658) …] | binds

Each binder was assayed against platelet-derived growth factor-BB (PDGF-BB) (human) (assay: peptide binding to PDGF-BB).

Row | binding | Binder
5 | binds | NGQTPIQRTIKPDVRSYTITGLQPGT [peptide 3 …]
6 | binds | QLISIQQYGHQEVTRFDFTTTSTST [peptide 2 (FN680-704) …]

Continued, binder first:

Row | Binder | binding
7 | QPSVGQQMIFEEHGFRRTTPPTTAT [peptide 4 (FN2043-2067) …] | binds
8 | QPSHISKYILRWRPKNSVGRWKEAT [peptide 1 (FN634-658) …] | binds

These are yes or no findings as the source states them, for the method shown. A result given as binding can be weak or reduced; the word gives no strength.
